The test system of the experiment is E. coli JT39 (Rtem). Description: in vitro MIC of ampicillin with and without the compound (synergy). The experiment is classed as cell-based. The conditions noted are these: Escherichia coli, read-out: in vitro MIC of ampicillin alone.

Consider `CC1(C)S[C@@H]2[C@H](NC(=O)[C@H](N)c3ccccc3)C(=O)N2[C@H]1C(=O)O` [ampicillin], for which the MIC came to 2000 µg/mL.

What is called MIC is the lowest concentration that inhibits growth of the organism.

Source of the values: US4444754A, “Derivatives of clavulanic acid, a process for their preparation and their use” (Beecham Group Limited, priority 1978, dated 1984).
